Data reported in article PMC4636137.
These are yes or no findings as the source states them, for the method shown. For part of these data: Binding seen in cells or lysates may run through a third protein. Some results given as binding are weak or reduced against the parent protein; the word gives no strength. Where a sequence is shown, tags or fusion partners need not be part of it. Blank lines part the entries; values can stand above or below the molecule they belong to.

Sequences of proteins named here, by UniProt entry; tags and fusion partners are left off.
UniProt P28905: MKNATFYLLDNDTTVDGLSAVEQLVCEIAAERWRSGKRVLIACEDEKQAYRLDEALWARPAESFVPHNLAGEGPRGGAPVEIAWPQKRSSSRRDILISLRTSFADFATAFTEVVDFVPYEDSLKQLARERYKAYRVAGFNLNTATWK

Tests used:
[1] = target: T1, biotin-binding domain (BBD)-YoaA fusion protein (E. coli) (UniProt P76257); experiment: pull-down; reciprocal: streptavidin agarose resin + YoaA-BBD crude lysate (bait) + His6-HolC crude lysate (prey), washed 5 times and eluted; Western blot with penta-His antibody
T1 sequence: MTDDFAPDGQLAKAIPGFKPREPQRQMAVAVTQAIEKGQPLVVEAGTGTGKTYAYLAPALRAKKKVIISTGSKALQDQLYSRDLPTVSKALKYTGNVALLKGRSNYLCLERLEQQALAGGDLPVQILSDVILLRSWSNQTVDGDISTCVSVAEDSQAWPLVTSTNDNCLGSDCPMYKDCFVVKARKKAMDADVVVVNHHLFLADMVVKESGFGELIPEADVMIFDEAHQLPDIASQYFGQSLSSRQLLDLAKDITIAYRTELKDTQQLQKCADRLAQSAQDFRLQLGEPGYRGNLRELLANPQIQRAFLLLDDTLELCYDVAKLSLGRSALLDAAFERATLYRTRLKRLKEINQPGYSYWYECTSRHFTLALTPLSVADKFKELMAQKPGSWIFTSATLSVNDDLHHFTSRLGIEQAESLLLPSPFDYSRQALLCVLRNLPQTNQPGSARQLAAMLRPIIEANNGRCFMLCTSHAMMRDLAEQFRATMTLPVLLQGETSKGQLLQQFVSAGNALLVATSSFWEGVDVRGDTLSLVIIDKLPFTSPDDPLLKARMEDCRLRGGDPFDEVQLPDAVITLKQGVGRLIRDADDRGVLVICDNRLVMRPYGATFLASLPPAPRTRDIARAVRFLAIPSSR

[2] = target: His6-tagged χ (HolC) protein (E. coli) (UniProt P28905); experiment: pull-down; His6-HolC from crude extract bound to Ni-NTA agarose (1 h, 20°) and washed five times (50 mM sodium phosphate pH 8.0, 500 mM NaCl, 20 mM imidazole); BBD-YoaA crude lysate added, incubated and washed; Western blot with NeutrAvidin-HRP; only the target purified
[3] = target: HolC (yeast two-hybrid fusion) (E. coli) (UniProt P28905); experiment: two-hybrid; ProQuest yeast two-hybrid, strain MaV203; ORFs in pDEST32 (Gal4 DNA binding domain) and pDEST22 (Gal4 activation domain); growth on SC -Leu -Trp -His + 25 mM 3-AT

binding [1]: binds
Molecule: His6-tagged χ (HolC) protein (from UniProt P28905 1-147)

binding [2]: binds
B1: biotin-binding domain (BBD)-YoaA fusion protein (protein, UniProt P76257 1-636)
chain: T1 sequence

binding [3]: binds
B2: YoaA (yeast two-hybrid fusion) (protein, UniProt P76257 1-636)
chain: T1 sequence
